According to patent publication US12178839B2, “Anti-obesity agent, pollakiuria improving agent, and autonomic nervous activity regulator” (ASAHI GROUP HOLDINGS, LTD., priority 2018, dated 2024):
At least one peptide structure holds a part that was inferred or is arguable (an end, a ring closure or a residue). Ends that are not written are not given here.

Columns and labels:
[1] = tested on: epididymal white adipose tissue sympathetic nerve; assay: Efferent white adipose tissue sympathetic nerve activity (WAT-SNA) after intragastric administration, Test Example 1; format: in vivo, Male Wistar rats; conditions: 1 mL/300 g body weight intragastric
[2] = tested on: efferent hypogastric nerve; assay: Efferent hypogastric nerve activity (HGNA) after intragastric administration, Test Example 2; format: in vivo, Male Wistar rats; conditions: 1 mL/300 g body weight intragastric
[3] = tested on: efferent pelvic splanchnic nerve; assay: Efferent pelvic splanchnic nerve activity (PSNA) after intragastric administration, Test Example 3; format: in vivo, Male Wistar rats; conditions: 0.1 mg/mL, 1 mL/300 g body weight intragastric
[4] = tested on: efferent adrenal sympathetic nerve; assay: Efferent adrenal sympathetic nerve activity (ASNA) after intragastric administration, Test Example 4; format: in vivo, Male Wistar rats; conditions: 0.1 mg/mL, 1 mL/300 g body weight intragastric
[5] = Plasma free fatty acid concentration (plasma FFA) after intragastric administration, Test Example 5; format: in vivo, Male Wistar rats; conditions: 0.1 mg/mL, 1 mL/300 g body weight intragastric, six rats
[6] = tested on: Male Wistar rats; assay: Rat spontaneous urination test (metabolism cage), Test Example 6; format: in vivo
Procedure: It was confirmed from Test Example 2 that LNDP promotes the efferent hypogastric nerve activity, and it was confirmed from Test Example 3 that LNDP inhibits the efferent the pelvic splanchnic nerve activity. Influence on the bladder, which is one of the internal organs dominated by these nerves, was therefore investigated.
Male Wistar rats which are 13 weeks old were received, and quarantined and acclimated in a thermostat animal room at 18 to 28° C. in a cycle including a 12-hour light period and a 12-hour dark period for 1 week, and ten 14- to 16-week-old rats per group were tested. An aqueous 0.1 mg/mL LNDP solution or water was ingested from drinking for 7 days, and the urination amount was measured as weight with an electronic balance installed under a urine-collecting opening in raising with a metabolism cage. The weight data of the electronic balance every minute were automatically inputted into a computer. The weight data of the electronic balance were chronologically confirmed as to each individual, an increase in weight was considered as one time of urination, and the difference between the maximum value and the immediately preceding minimum value was defined as one time of the urination amount. The total urination amount and the frequency of urination per day were found, and the urine amount per one time of urination (=the total urination amount per day/the frequency of urination per day) was calculated as to an individual of each group. In a statistical method for comparing two groups, the Student's t-test was performed when the uniformity of the variance was observed by the F-test, the t-test of Aspin-Welch was performed when the uniformity of the variance was not observed, and the rank sum test of Wilcoxson was performed as to the measured values including the frequency of urination. As to the comparison of the test substance and ingestion days with respect to each measured value, two-way analysis of variance (two-way ANOVA) with replication was performed.

[7] = 0.1 mg/mL, three rats, average ± standard error, 50 minutes after administration, 0 minutes = 100%
[8] = aqueous 0.1 mg/mL LNDP solution ingestion group, 7 days, average ± standard error
[9] = aqueous 0.1 mg/ml LNDP solution as drinking for 7 days, ten rats per group
[10] = aqueous 0.1 mg/ml LNDP solution as drinking for 7 days, water = 100

Sequence “NIPPLTQTPVVVPPFLQPE [LNDP, Asn-Ile-Pro-Pro-Leu-Thr-Gln-Thr-Pro-Val-Val-Val-Pro-Pro-Phe-Leu-Gln-Pro-Glu]” has a WAT-SNA maximum value ([1]; 0.001 mg/mL, one rat, 40 minutes after administration, 0 minutes = 100%) of 141.3%, a WAT-SNA ([1]; 0.001 mg/mL, one rat, 60 minutes after administration, 0 minutes = 100%) of 136.2% and a WAT-SNA maximum value ([1]; 0.01 mg/mL, one rat, 55 minutes later, 0 minutes = 100%) of 149.1%. For the same sequence, the WAT-SNA maximum value ([1]; 0.1 mg/mL, one rat, 60 minutes later, 0 minutes = 100%) was 162.4%, the WAT-SNA maximum value [1, 7] was 143.2±7.7% and the “WAT-SNA values 5 to 60 minutes, LNDP vs water administration (ANOVA with repeated measures)” value ([1]; 0.1 mg/mL, three rats, P<0.0005, F=204.5) was “significant difference”. The WAT-SNA maximum value ([1]; 1 mg/mL, one rat, 55 minutes later, 0 minutes = 100%) was 123. %, the HGNA minimum value ([2]; 0.001 mg/mL, one rat, 15 minutes after administration, 0 minutes = 100%) was 90.8% and the HGNA maximum value ([2]; 0.001 mg/mL, one rat, 50 minutes after administration, 0 minutes = 100%) was 115.1%. The HGNA maximum value ([2]; 0.01 mg/mL, one rat, 25 minutes after administration, 0 minutes = 100%) was 129.2%, the HGNA ([2]; 0.01 mg/mL, one rat, 60 minutes after administration, 0 minutes = 100%) was 113.5% and the HGNA maximum value ([2]; 0.01 mg/mL, three rats, average ± standard error, 60 minutes after administration, 0 minutes = 100%) was 123.1±14.6%. For the same sequence, the “HGNA values 5 to 60 minutes, LNDP vs water treatment group (ANOVA with repeated measures)” value ([2]; 0.01 mg/mL, three rats, P<0.0005, F=17.4) was “significant difference”, the HGNA maximum value ([2]; 0.1 mg/mL, one rat, 55 minutes after administration, 0 minutes = 100%) was 141.1% and the HGNA maximum value [2, 7] was 128.5±6.9%. For the same sequence, the “HGNA values 5 to 60 minutes, LNDP vs water treatment group (ANOVA with repeated measures)” value ([2]; 0.1 mg/mL, three rats, P<0.0005, F=55.8) was “significant difference”, the HGNA maximum value ([2]; 1 mg/mL, one rat, 40 minutes after administration, 0 minutes = 100%) was 147.8% and the PSNA minimum value ([3]; three rats, average ± standard error, 60 minutes after administration, 0 minutes = 100%) was 65.1±10.0%. The “Rates of change in PSNA 5 to 60 minutes, LNDP vs water treatment group (ANOVA with repeated measures)” value ([3]; P<0.0005, F=103.9) was “significant difference”, the ASNA maximum value ([4]; average ± standard error, 50 minutes after administration, 0 minutes = 100%) was 145.9±8.2% and the “Rates of change in ASNA 5 to 60 minutes, LNDP vs water treatment group (ANOVA with repeated measures)” value ([4]; P<0.0005, F=314.8) was “significant difference”. For the same sequence, the “plasma FFA concentration minimum value” ([5]; average ± standard error, 30 minutes after administration, 0 minutes = 100%) was 96.0±14.3%, the “plasma FFA concentration maximum value” ([5]; average ± standard error, 120 minutes after administration, 0 minutes = 100%) was 149.0±18.1% and the “plasma FFA concentration 30 to 120 minutes, LNDP vs water treatment group (ANOVA with repeated measures)” value ([5]; P<0.05, F=7.81) was “significant difference”. The “average value of the urination amount per time/body weight kg” value [6, 8] was 3.44 ± 0.13 g, the “average value of the urine amount per time” value [6, 8] was 1.41 ± 0.05 g and the “frequency of urination per day” value [6, 8] was 15.8±0.4. The “Frequency of urination (time/day) Average” value [6, 9] was 15.8 time/day, the “Urination amount (g/day) Average” value [6, 9] was 52.44 g/day and the “Urination amount per time (g/time) Average” value [6, 9] was 1.41 g/time. For the same sequence, the “Frequency of urination %” value [6, 10] was 85%, the Urination amount % [6, 10] was 99% and the “Urination amount per time %” value [6, 10] was 18%.
